# Paper PMC12373721
# Amino acid sequences for entries named in this document (tags omitted). A change or cut given only in a name is not applied to a line headed by its entry. Chains listed by the source or under a name are the forms on record and can include a tag or linker.
# UniProt Q96L91: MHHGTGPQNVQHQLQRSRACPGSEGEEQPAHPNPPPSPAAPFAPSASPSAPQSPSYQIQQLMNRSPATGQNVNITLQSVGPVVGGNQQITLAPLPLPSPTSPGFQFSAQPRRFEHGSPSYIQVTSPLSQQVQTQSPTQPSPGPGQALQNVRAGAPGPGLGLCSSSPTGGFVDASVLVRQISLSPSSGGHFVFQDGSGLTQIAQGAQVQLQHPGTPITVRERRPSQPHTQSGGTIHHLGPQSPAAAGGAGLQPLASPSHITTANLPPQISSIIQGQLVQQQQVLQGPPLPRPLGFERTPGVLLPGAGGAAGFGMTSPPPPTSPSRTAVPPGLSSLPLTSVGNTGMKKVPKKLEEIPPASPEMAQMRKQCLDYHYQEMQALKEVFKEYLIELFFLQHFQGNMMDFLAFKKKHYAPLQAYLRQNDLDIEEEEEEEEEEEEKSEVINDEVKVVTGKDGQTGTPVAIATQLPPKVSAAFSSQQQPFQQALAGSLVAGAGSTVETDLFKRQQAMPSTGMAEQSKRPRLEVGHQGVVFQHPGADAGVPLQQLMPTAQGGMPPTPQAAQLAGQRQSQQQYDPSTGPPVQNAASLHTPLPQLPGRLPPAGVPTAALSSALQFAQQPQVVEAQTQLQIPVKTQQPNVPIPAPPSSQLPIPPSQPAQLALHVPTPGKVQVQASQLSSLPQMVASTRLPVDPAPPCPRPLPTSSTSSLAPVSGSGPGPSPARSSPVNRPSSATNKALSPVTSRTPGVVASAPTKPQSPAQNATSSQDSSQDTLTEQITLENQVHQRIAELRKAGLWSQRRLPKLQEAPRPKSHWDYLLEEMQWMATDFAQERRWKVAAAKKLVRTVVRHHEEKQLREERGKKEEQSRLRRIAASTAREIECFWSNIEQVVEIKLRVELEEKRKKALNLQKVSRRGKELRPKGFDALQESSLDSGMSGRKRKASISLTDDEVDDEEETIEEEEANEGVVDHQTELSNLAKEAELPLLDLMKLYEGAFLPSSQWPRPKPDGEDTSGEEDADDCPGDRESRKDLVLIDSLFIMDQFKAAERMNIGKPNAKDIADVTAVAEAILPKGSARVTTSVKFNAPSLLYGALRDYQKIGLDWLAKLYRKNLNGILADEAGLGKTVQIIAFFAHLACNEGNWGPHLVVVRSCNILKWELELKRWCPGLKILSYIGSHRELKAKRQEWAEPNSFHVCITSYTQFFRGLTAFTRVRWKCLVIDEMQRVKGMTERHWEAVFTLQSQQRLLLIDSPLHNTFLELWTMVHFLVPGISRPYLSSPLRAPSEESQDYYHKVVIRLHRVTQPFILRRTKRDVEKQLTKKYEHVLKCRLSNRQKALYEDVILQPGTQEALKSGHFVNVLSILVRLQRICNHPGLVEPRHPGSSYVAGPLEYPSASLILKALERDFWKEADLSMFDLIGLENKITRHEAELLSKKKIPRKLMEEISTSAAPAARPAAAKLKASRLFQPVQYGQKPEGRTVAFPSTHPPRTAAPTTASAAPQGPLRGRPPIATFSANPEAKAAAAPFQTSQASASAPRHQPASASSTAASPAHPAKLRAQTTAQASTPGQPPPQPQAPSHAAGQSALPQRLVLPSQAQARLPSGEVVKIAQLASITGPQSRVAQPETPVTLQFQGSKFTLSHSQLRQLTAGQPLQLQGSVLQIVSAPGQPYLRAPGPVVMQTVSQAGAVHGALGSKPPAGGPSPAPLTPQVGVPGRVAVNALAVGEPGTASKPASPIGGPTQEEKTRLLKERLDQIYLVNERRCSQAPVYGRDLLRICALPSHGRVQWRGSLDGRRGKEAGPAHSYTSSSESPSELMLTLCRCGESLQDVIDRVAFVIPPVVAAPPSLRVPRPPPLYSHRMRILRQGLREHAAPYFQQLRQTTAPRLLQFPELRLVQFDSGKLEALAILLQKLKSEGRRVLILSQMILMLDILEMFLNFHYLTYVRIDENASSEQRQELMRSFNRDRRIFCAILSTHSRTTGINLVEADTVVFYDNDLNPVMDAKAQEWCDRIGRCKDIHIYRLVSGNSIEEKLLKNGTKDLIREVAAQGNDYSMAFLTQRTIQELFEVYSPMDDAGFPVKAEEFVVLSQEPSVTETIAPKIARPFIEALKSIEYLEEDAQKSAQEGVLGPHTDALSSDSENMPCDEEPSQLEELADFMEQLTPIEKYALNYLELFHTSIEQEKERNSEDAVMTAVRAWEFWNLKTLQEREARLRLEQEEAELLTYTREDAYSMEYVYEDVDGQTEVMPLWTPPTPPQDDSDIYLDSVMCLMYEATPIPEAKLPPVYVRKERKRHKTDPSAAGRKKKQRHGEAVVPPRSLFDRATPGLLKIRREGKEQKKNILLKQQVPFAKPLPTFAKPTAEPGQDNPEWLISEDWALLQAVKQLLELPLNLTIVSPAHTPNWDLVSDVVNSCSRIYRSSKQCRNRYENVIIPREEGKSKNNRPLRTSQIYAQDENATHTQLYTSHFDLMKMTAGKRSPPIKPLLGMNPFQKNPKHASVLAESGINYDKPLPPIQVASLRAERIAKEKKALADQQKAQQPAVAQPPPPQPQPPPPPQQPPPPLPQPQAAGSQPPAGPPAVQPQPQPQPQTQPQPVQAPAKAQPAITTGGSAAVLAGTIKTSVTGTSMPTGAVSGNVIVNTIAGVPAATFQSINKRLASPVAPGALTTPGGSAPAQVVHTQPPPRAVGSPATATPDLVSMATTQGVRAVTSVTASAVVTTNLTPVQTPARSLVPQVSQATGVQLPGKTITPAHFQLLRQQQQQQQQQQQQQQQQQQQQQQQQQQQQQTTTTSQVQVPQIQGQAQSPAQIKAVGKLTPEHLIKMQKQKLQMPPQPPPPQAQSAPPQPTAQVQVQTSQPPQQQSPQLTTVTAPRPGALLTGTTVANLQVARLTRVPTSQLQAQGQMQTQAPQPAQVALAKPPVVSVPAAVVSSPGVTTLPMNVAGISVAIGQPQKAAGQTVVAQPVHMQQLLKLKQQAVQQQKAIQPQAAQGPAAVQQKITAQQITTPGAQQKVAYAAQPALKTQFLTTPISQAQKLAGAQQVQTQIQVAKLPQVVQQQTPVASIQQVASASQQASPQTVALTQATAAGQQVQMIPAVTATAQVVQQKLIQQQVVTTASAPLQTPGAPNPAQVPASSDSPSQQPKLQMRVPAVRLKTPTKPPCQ
# Tip60β (spliced, exon 5-skipped isoform of Tip60/KAT5) (Q92993-2, form named): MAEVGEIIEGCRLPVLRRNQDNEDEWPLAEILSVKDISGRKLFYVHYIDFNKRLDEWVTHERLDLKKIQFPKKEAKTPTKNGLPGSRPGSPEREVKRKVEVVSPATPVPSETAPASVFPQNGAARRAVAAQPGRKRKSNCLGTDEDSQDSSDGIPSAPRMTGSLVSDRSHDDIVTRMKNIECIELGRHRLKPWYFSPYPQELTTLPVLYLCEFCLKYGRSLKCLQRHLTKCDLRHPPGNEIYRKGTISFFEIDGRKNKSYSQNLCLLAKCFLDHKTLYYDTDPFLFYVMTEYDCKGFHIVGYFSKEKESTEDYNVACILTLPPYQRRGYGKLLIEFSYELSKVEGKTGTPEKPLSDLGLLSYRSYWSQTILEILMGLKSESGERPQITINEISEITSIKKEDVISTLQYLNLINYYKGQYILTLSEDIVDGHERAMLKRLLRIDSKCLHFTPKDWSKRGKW
# These are yes or no findings as the source states them, for the method shown. In cells and extracts the contact can be indirect. Some entries that bind do so weakly or less than the wild type.
# Target: EP400 (human (endogenous in MKL-1)) (UniProt Q96L91)
# Assay: co-IP; MKL-1 cells with Dox-inducible EP400 shRNA treated with DMSO, 111 nM MS023, 12 nM JNJ-64619178 or Dox for 3 d; whole-cell lysates (EBC buffer, 150 mM NaCl, 0.5% NP-40) immunoprecipitated with MAX or EP400 antibody on Protein G Dynabeads at 4°C overnight, washed with 300 mM NaCl EBC buffer; immunoblot
substance,measurement,value
"Tip60β (spliced, exon 5-skipped isoform of Tip60/KAT5) (from UniProt Q92993-2 1-461)",binding,binds
